Data: patent US20180353445A1, “METHODS AND COMPOSITIONS RELATING TO PROTEASOME INHIBITOR RESISTANCE” (Whitehead Institute for Biomedical Research, priority 2017, published 2018)
For some assays here: For at least one compound, name, drawing or mass did not settle the structure. Some entries share one result that the patent states for a list of compounds.

Key:
[1] = test system: IMR32 (reduced PSMD5) and Kelly neuroblastoma cells; assay: Viability of IMR32 versus Kelly neuroblastoma cells (CellTiter-Glo); format: cell-based, human; conditions: ABT-263 versus more specific BCL2, BCL-XL and MCL-1 inhibitors
Experimental: To determine whether these compounds also differentially affect cells with reduced expression of PSDMS, IMR32 and Kelly cells were each cultured in the presence of ABT-263, disulfiram, or elesclomol across a range of concentrations. Cell viability was measured by CellTiter-Glo® Luminescent Cell Viability Assay 72 hours after addition of the compound to cells. The fold viability relative to culture in the absence of the compound was determined for each cell line. […] In the experiment shown in FIG. 24, the lowest lower concentration of ABT-263 and disulfiram tested was 1 uM.
ABT-263 targets several members of the BCL2 family, including BCL2 and BCL-XL.

[2] = test system: T47D cells; assay: Combination of ABT-263 or ABT-199 with proteasome inhibitors, T47D cells with reduced PSMD2; format: cell-based, human; conditions: T47D cells with reduced PSMD2, 72 hours
From the text: FIG. 18: Plots showing effect of various concentrations of ABT-263 (upper panels) or ABT-199 (lower panels) in combination with various concentrations of ixazomib un viability of T47D cells with reduced expression of PSMD2 (KB) (right panels) or control cells (left panels). Fold viability refers to the number of viable cells of the indicated type (PSMD2 KD or control cells) after culture in the presence of the test compounds (ixazomib +ABT-263 or ixazomib +ABT-199) divided by the number of viable cells of that type after culture in the absence of the test compounds. The concentrations of ABT-263 or ABT-199 tested are shown in the legend on the right side of each panel. If no concentration is listed, the compound was absent. Fold viability of control cells cultured in the presence of ixazomib alone (i.e., in the absence ABT-263 or ABT-199) is also shown in the panels showing effect of ixazomib +ABT-263 or ixazomib +ABT-199 on PSMD2 KD cells. […]
FIGS. 21A-21C: (FIG. 21A) Plot showing synergy of ABT-263 with ixazomib in T47D cells with reduced expression of PSMD2. […] The y-axis on each plot is the calculated EC50 in micromoles for either ixazomib or bortezomib in the presence of sublethal doses of ABT-263 or A.BT-199 as indicated. Compounds were added to the cells at the same time and cell viability was measured 72 hours later.

[3] = test system: T47D cells harboring a doxycycline inducible PSMD2 KD shRNA construct; assay: Viability of PSMD2 knockdown versus control T47D cells, dose response and combinations (CellTiter-Glo); format: cell-based, human; conditions: transient PSMD2 suppression versus control
Experimental: Cell viability was measured by CellTiter-Glot Luminescent Cell Viability Assay 72 hours after addition of the compounds to cells.
Cell viability was measured by CellTiter-Glo® Luminescent Cell Viability Assay 72 hours after addition of the compounds were added to cells.
Cell viability was measured by CellTiter-Glolk Luminescent Cell Viability Assay 72 hours after addition of the compounds to cells.
To directly test whether altered cellular metabolism can modulate the sensitivity of cancer cells to proteasome inhibitors, we engineered the breast cancer cell line T47D into Lo19S and increased OXPHOS states. Initially, we reconstituted the Lo19S state by transient suppression of the PSMD2 subunit of the 19S complex using an inducible shRNA.
To induce a high OXPHOS (Hi-OXPHOS) state, we changed the carbon source in the cell culture media from glucose to galactose, which is poorly fermentable. This method has been previously shown to drive glutamine utilization by mitochondria and to thus increase mitochondrial respiration (Gohil et al., 2010). […]
Cell viability—where indicated relative cell number following different drug treatment was conducted by plating cells at 1000 cells/well in 384 well plates. […] Viability was measured 72 hours after drug addition using cell titer-glo (Promega) according to manufactures protocol. […]

[4] = test system: relapsed multiple myeloma; assay: Analysis of phase 2/3 bortezomib clinical trials in relapsed multiple myeloma stratified by 19S subunit expression; conditions: human, in vivo
Experimental: (All patients were treated with bortezomib.) (FIG. 15B) Reduced expression of 19S subunit expression is correlated with poor tumor suppression response to bortezomib in patients with relapsed myeloma enrolled in phase 2 and phase 3 clinical trials of bortezomib. Plotted is the time to relapse for patients that relapsed that were either treated with bortezomib, stratified by reduced expression of at least one subunit of the 19S proteasome complex or the dexamethasone treated group as a control.
We analyzed gene expression data from 135 patients with relapsed multiple myeloma who participated in Phase II or III trials of bortezomib (˜2007; Mulligan, G., Mitsiades, et al. (2007) Gene expression profiling and correlation with outcome in clinical trials of the proteasome inhibitor hortezomib. Blood 109, 3177-3188) and determined the sigma score for each cancer. […]
Methods details: re-treatment gene expression data from relapsed multiple myeloma patients undergoing clinical trials with bortezomib were downloaded from GSE9782 (34). […] Sigma scores were calculated from all probes. […] P-value was calculated using Wilcoxon test.

## CC1(C)CCC(CN2CCN(c3ccc(C(=O)NS(=O)(=O)c4ccc(NCC5CCOCC5)c([N+](=O)[O-])c4)c(Oc4cnc5[nH]ccc5c4)c3)CC2)=C(c2ccc(Cl)cc2)C1 [ABT-199, venetoclax]
[1]
  preferential sensitivity of IMR32 versus Kelly cells, compared among BCL2 family inhibitors: much greater for ABT-263
[2]
  combination effect with ixazomib: additive effect

## CC(C)C[C@H](NC(=O)[C@H](Cc1ccccc1)NC(=O)c1cnccn1)B(O)O [bortezomib]
[3]
  increase of proliferation inhibition EC90 on inducing the Lo19S state: 14-27 fold

## C[C@@H]1C[C@H]2[C@@H]3CCC4=CC(=O)C=C[C@]4(C)[C@@]3(F)[C@@H](O)C[C@]2(C)[C@@]1(O)C(=O)CO [dexamethasone]
[4]
  effect of suppression of 19S subunit(s) on response to treatment: did not induce a significant change

## CC(C)C[C@H](NC(=O)CNC(=O)c1cc(Cl)ccc1Cl)B(O)O [ixazomib]
[3]
  increase of proliferation inhibition EC90 on inducing the Lo19S state: 14-27 fold
